{
  "sequences": {"note": "Chains of the proteins cited; added tags and fusions are not shown.", "UniProt P33993": "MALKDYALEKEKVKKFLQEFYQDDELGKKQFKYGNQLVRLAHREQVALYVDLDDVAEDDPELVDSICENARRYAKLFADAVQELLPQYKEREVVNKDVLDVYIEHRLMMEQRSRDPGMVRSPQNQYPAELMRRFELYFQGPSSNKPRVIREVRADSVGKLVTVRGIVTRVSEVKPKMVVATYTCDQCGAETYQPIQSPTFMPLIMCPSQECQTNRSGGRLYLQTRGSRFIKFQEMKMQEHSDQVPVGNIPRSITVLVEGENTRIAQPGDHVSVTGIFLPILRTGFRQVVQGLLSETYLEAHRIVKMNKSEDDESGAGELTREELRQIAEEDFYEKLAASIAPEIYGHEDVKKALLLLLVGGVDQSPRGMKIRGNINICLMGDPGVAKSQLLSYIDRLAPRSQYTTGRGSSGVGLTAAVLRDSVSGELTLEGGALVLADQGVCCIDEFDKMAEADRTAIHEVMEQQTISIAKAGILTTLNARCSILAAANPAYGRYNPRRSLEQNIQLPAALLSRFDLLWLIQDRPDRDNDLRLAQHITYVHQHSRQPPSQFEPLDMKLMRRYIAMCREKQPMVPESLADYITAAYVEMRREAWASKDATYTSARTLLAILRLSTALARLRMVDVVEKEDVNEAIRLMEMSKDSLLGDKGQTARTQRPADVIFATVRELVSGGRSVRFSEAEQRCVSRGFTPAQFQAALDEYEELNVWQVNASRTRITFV"},
  "source": "paper PMC4825987",
  "binders": {"B1": {"name": "hIPI3 (WDR18, WD repeat domain 18), yeast two-hybrid fusion (protein, UniProt Q9BV38 1-432)", "chain": "MAAPMEVAVCTDSAAPMWSCIVWELHSGANLLTYRGGQAGPRGLALLNGEYLLAAQLGKNYISAWELQRKDQLQQKIMCPGPVTCLTASPNGLYVLAGVAESIHLWEVSTGNLLVILSRHYQDVSCLQFTGDSSHFISGGKDCLVLVWSLCSVLQADPSRIPAPRHVWSHHALPITDLHCGFGGPLARVATSSLDQTVKLWEVSSGELLLSVLFDVSIMAVTMDLAEHHMFCGGSEGSIFQVDLFTWPGQRERSFHPEQDAGKVFKGHRNQVTCLSVSTDGSVLLSGSHDETVRLWDVQSKQCIRTVALKGPVTNAAILLAPVSMLSSDFRPSLPLPHFNKHLLGAEHGDEPRHGGLTLRLGLHQQGSEPSYLDRTEQLQAVLCSTMEKSVLGGQDQLRVRVTELEDEVRNLRKINRDLFDFSTRFITRPAK"}},
  "key": {"[1]": {"target": "hMCM7, yeast two-hybrid fusion (human) (UniProt P33993)", "test": "two-hybrid; Gal4 AD (pGADT7) and BD (pGBKT7) fusions co-transformed into AH109 yeast; growth on SCM-Trp-Leu-His (SCM-3) plates against SCM-Trp-Leu (SCM-2)"}, "[2]": {"target": "T1, hORC1, yeast two-hybrid fusion (human) (UniProt Q13415)", "T1 sequence": "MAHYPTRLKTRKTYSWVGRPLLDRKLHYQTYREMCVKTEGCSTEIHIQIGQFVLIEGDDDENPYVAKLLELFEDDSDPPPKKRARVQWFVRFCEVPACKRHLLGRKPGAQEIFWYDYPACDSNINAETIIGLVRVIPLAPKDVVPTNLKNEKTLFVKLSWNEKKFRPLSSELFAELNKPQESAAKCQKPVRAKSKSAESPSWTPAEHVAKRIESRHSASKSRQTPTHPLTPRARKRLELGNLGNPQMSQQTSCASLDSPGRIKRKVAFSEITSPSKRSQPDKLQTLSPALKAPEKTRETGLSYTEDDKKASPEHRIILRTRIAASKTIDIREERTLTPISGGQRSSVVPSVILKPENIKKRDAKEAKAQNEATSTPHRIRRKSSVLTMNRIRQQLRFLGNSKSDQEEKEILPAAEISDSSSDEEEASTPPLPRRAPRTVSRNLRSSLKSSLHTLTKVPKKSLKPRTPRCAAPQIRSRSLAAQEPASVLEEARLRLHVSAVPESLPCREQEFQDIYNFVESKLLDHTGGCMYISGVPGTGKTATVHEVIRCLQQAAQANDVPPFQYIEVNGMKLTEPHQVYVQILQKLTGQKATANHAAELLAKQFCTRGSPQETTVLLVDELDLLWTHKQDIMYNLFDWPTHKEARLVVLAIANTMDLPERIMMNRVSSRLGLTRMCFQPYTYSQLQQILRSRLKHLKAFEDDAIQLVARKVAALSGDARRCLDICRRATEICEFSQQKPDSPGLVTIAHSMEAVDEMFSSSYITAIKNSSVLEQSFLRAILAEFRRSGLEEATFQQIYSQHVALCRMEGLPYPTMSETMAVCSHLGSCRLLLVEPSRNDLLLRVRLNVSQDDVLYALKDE", "test": "two-hybrid; Gal4 AD (pGADT7) and BD (pGBKT7) fusions co-transformed into AH109 yeast; growth on SCM-Trp-Leu-His (SCM-3) plates against SCM-Trp-Leu (SCM-2)"}},
  "note": "Results are given in words; binding and its absence hold for the method and conditions named. Some binding calls cover weakened binding; strength is not graded here. Sequences can lack the tags named with a protein.",
  "data": [
    {"binder": "B1", "values": [
      {"measurement": "binding", "setting": "[1]", "result": "binds"},
      {"measurement": "binding", "setting": "[2]", "result": "binds"}
    ]}
  ]
}
